Assay results taken from the supplement of paper PMC10849652.
The other results are listed elsewhere or left out.

Protein sequences, listed by entry. Tags and fused reporters are not part of them. Lines headed by an entry give the natural chain unless they say otherwise; changes in a name come on top.
UniProt Q562R1, whole entry, looked up: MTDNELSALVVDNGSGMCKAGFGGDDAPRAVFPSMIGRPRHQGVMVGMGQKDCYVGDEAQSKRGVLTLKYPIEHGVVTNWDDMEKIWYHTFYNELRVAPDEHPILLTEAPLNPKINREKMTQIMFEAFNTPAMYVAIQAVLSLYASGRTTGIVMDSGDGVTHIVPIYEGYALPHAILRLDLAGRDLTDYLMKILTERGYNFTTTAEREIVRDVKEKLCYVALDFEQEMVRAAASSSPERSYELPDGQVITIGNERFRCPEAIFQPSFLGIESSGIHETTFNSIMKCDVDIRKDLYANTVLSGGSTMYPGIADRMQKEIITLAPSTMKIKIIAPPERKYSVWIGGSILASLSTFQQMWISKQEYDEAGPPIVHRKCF
UniProt Q86TW2: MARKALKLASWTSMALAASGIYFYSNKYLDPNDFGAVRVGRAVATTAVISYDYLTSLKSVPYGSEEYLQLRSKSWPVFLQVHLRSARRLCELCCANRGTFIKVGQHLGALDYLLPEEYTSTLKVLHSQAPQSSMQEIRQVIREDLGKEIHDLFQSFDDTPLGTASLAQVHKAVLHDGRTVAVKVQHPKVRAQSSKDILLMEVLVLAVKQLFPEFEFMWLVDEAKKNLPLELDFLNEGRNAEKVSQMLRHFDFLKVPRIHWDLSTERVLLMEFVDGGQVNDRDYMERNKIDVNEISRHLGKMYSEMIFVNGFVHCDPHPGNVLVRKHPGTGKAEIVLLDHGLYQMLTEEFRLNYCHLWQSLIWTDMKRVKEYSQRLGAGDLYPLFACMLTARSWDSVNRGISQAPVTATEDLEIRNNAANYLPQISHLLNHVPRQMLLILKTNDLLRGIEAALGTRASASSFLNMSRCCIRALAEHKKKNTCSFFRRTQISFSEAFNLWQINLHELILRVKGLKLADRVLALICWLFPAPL
UniProt Q6JQN1: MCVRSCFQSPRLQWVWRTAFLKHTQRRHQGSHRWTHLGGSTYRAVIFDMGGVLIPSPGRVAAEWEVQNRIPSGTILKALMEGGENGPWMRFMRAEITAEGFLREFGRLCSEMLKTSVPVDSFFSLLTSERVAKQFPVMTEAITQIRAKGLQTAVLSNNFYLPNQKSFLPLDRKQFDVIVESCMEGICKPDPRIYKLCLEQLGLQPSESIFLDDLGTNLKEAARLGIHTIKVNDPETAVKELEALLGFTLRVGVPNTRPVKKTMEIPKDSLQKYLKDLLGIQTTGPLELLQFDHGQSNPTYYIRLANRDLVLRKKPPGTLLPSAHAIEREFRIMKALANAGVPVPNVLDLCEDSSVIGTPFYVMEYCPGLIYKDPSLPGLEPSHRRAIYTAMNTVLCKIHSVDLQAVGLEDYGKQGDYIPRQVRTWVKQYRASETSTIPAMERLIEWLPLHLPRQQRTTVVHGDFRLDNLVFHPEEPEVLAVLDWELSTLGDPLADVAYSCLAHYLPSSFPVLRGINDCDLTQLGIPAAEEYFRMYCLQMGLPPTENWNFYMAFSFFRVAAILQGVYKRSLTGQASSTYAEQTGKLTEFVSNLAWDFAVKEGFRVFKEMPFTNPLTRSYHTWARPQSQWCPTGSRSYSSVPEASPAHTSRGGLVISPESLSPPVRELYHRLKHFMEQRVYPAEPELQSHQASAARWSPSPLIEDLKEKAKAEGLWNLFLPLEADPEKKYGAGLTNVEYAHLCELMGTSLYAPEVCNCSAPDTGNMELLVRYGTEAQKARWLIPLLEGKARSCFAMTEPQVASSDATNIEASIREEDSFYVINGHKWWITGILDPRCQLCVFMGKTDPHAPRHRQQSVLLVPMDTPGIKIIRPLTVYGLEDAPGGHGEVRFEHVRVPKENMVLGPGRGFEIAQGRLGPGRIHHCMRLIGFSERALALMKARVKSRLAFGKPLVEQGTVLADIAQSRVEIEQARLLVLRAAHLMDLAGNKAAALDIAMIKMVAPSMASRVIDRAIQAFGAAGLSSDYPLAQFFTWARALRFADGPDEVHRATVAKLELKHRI
UniProt P21439, whole entry, looked up: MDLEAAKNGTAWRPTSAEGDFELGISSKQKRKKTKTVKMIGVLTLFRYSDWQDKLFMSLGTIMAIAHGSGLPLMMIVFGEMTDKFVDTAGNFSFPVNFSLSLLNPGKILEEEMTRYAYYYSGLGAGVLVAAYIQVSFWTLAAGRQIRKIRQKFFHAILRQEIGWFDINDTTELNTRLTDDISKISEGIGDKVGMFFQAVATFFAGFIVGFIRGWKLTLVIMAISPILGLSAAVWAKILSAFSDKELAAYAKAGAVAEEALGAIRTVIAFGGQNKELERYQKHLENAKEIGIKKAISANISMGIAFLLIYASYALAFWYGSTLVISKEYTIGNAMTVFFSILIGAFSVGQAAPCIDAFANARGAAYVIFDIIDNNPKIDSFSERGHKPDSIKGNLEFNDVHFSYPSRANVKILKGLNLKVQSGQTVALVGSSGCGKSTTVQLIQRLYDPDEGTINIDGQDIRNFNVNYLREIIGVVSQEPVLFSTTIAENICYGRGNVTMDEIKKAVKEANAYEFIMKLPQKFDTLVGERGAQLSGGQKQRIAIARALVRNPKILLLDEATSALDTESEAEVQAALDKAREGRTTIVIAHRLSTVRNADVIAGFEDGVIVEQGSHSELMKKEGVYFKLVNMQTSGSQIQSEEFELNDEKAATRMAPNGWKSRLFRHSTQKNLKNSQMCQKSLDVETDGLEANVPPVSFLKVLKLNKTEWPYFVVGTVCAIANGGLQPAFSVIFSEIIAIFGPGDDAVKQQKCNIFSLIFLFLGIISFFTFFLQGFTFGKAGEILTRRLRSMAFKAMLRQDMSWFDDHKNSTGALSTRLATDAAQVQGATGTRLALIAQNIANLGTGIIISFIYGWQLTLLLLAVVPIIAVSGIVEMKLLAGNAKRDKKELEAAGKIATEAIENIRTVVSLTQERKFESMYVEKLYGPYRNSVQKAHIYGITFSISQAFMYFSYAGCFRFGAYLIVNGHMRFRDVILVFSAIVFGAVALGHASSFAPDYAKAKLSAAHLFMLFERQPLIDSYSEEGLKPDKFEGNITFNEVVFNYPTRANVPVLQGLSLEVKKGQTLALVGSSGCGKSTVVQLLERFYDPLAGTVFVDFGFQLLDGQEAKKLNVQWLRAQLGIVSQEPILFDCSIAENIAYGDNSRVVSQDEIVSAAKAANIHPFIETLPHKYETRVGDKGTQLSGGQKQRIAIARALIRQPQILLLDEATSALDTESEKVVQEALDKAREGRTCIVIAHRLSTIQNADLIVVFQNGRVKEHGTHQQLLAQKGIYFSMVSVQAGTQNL
UniProt Q8IZY2: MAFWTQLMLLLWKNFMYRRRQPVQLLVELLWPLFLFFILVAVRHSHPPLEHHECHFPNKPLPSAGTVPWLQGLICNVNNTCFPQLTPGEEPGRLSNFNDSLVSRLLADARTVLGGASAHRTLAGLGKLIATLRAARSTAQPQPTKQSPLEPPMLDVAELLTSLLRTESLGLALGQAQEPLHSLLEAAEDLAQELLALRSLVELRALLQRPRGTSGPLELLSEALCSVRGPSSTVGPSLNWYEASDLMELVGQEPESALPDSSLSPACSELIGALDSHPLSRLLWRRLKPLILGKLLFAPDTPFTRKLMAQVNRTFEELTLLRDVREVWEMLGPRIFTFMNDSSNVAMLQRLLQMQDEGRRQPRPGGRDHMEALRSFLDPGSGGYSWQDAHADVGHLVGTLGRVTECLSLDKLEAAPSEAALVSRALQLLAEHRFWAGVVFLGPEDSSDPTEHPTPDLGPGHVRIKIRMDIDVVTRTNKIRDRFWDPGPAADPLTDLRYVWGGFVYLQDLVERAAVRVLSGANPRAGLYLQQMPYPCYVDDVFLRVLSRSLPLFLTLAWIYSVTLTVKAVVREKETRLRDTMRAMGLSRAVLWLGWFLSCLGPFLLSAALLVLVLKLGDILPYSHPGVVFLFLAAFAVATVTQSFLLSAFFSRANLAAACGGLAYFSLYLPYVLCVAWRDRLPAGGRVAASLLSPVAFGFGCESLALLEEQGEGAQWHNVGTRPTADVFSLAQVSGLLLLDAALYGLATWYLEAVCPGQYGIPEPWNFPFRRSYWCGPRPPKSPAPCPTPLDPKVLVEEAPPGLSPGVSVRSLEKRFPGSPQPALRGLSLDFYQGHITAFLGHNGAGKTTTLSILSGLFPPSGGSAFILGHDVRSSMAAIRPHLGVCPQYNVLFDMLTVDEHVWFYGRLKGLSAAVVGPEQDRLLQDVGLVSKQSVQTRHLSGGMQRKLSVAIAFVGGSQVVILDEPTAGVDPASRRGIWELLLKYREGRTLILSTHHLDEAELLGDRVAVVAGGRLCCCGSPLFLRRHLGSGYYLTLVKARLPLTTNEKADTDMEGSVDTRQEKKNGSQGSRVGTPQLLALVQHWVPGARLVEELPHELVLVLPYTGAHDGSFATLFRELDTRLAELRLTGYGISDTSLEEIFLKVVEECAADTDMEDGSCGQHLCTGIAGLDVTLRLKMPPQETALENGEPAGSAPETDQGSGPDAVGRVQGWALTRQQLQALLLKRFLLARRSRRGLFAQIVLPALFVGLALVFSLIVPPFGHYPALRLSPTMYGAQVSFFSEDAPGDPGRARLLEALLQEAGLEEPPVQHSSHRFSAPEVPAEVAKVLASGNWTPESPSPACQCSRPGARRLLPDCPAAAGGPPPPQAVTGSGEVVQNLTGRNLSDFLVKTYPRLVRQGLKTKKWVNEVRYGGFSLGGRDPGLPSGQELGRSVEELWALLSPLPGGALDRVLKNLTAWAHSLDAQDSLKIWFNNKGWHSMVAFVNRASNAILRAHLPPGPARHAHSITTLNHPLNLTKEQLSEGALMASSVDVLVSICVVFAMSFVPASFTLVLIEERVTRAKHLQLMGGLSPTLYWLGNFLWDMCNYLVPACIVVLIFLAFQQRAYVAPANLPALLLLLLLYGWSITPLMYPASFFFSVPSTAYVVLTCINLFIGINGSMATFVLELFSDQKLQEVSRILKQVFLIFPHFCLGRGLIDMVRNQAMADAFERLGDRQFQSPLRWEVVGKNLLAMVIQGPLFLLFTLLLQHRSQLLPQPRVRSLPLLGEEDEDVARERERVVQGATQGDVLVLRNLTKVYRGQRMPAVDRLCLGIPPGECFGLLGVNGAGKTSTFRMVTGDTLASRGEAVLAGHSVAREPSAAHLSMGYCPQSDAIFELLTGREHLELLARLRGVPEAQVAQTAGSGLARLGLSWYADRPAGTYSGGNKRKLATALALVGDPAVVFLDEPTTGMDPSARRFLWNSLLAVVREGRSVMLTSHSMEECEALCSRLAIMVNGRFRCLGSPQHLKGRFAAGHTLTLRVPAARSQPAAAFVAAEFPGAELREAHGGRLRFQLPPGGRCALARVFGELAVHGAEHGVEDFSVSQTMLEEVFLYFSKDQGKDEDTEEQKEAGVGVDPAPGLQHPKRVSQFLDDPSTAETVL
UniProt Q8TDG2: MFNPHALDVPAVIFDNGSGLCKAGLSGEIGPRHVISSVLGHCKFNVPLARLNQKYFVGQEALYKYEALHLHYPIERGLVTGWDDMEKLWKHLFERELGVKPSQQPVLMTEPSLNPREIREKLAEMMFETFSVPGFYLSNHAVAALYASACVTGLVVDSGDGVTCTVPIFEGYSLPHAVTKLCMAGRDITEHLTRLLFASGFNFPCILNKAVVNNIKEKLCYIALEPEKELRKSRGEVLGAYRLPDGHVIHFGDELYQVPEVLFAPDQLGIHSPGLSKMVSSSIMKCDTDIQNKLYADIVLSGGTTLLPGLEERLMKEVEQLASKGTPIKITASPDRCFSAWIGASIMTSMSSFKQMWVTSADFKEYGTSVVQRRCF
UniProt P33897: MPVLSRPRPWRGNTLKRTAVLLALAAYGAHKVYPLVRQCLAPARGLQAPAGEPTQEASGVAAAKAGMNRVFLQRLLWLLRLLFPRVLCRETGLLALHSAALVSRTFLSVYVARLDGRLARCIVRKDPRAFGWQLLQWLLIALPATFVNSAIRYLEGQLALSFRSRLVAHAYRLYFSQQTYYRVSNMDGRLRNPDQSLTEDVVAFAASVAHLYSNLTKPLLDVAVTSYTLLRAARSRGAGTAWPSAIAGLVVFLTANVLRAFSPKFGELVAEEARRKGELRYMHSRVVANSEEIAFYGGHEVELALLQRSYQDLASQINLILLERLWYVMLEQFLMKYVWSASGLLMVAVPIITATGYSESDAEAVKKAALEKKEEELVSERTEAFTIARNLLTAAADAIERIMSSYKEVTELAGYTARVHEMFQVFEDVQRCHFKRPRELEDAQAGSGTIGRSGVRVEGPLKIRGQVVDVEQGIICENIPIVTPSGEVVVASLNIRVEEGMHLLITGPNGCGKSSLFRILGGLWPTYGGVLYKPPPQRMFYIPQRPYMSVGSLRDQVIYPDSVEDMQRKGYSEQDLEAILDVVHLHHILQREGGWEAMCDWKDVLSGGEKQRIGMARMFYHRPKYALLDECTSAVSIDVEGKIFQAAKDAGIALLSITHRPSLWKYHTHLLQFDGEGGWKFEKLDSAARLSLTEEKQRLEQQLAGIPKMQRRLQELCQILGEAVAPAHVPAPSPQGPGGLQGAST

Tests used:
Experiment in all cases: log2 fold change, soluble protein after heating vs DMSO (PISA); higher = thermal stabilisation; K562 cells, 10 uM, 30 min; active = over 0.2 and 3.5 SD of the protein, either way, in both replicates (recomputed)
[1] = compound: C1=CC=C(C=C1)[C@H](COC2=CC3=C(C=C2)NC(=O)N3)NC(=O)C4=CC=CN(C4=O)CC5=CC(=C(C=C5)F)F
Summary of the method: (§1)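 K562 cells at 2×10^6 cells/mL were exposed to 10 μM compound for 30 min, then aliquots were heated for 3 min across 48°C-58°C, pooled, and extracted in PBS containing 0.5% NP-40 at 4°C. The supernatant after 21,000xg for 90 min was taken as soluble protein and measured by TMTpro 16plex LC-MS/MS with channel sums equalised. Thermal stability is reported relative to control samples, with values from duplicates. Fold changes are given on a log2 scale.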

[2] = compound: CC1=C2C(=CC=C1)N=C(N(C2=O)C3=CC=CC=C3C)CN4C=NC5=C(N=CN=C54)N
Summary of the method: as §1

[3] = compound: Cc1sc2c(c1C)C(c1ccc(Cl)cc1)=N[C@@H](CC(=O)OC(C)(C)C)c1nnc(C)n1-2
Summary of the method: as §1

[4] = compound: CC1=C(SC2=C1C(=N[C@H](C3=NN=C(N32)C)CC(=O)N)C4=CC=C(C=C4)Cl)C
Summary of the method: as §1

[5] = compound: c1ccc([C@@H]2C[C@H]2NC2CCNCC2)cc1
Summary of the method: as §1

Target	log2 fold change [1]	log2 fold change [2]	log2 fold change [3]	log2 fold change [4]	log2 fold change [5]
ACTBL2 (UniProt Q562R1)	inactive: -0.444	inactive: -0.201			
ABCC10 (UniProt Q5T3U5)	inactive: -0.061	inactive: 0.033	inactive: 0.05		
ADCK1 (UniProt Q86TW2)		inactive: 0.014	inactive: 0.202	inactive: 0.052	inactive: -0.015
ABHD13 (UniProt Q7L211)	inactive: -0.051	inactive: 0.034	inactive: -0.102		
ABCE1 (UniProt H0Y990)	inactive: -0.115	inactive: 0	inactive: -0.019	inactive: 0.11	inactive: 0.068
A2ML1 (UniProt A8K2U0)		inactive: 0.12	inactive: -0.509		
ACAT1, A0A5F9ZHJ0	inactive: -0.082		inactive: 0.097	inactive: 0.227	inactive: 0.078
ACTN4 (UniProt K7EJH8)	inactive: 0.007		inactive: 0.075	inactive: 0.049	inactive: 0.046
ACAD10 isoform 5 (UniProt Q6JQN1)		inactive: 0.016			
ABCB4 (UniProt P21439)		inactive: -0.078	inactive: -0.119		
ABCA7 (UniProt Q8IZY2)	inactive: -0.254			inactive: 0.23	inactive: 0.188
AARSD1 (UniProt Q9BTE6)	inactive: -0.081			inactive: -0.267	inactive: -0.068
ABCB11 (UniProt O95342)			inactive: 0.019	inactive: 0.095	inactive: -0.11
ACAA2 (UniProt K7ER88)	inactive: 0.188	inactive: 0.023			
ACTRT1 (UniProt Q8TDG2)	inactive: -0.066	inactive: 0.264			
ABCE1 (UniProt P61221)	inactive: 0.005	inactive: 0.008	inactive: 0.003	inactive: 0.006	inactive: 0.001
ACSL6 isoform 1 (UniProt Q9UKU0)	inactive: 0.012	inactive: 0.29	inactive: -0.009		
ACTG1 (UniProt K7EM38)		inactive: 0.225	inactive: 0.128	inactive: -0.609	inactive: -0.234
ACVR1 (UniProt Q04771)		inactive: 0.041	inactive: -0.218	inactive: 0.061	inactive: 0.072
ABCD1 (UniProt P33897)				inactive: 0.061	inactive: -0.093
ABCA8 isoform 3 (UniProt O94911)	inactive: -0.201		inactive: -0.098		
ABL2 (UniProt P42684)	inactive: -0.21		inactive: 0.025		

Copied from the list:
ACAA2 (UniProt K7ER88) – log2 fold change [2]: inactive: 0.023
ACVR1 (UniProt Q04771) – log2 fold change [5]: inactive: 0.072
